# Earlier results as cited in patent US20070281960A1, “Anti-Histaminic Composition” (priority 2004, published 2007).
# Settings: more potent than loratadine; cited from earlier work
structure (smiles),measurement,value
"Clc1ccc2c(c1)CCc1cccnc1C2=C1CCNCC1 [Desloratadine, 8-chloro-6,11-dihydro-11-(4-piperidylidene)-5-H-benzo [5,6] cyclohepta [1,2-b] pyridine]",potency in-vivo relative to loratadine,10 fold
